Results deposited as PubChem BioAssay AID1259308 (NCATS, 2017)
Assay: 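Knock-downs that increase output of a recombinant reporter protein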 (primary screen). Cell system: human HEK293 embryonic kidney cells stably expressing firefly luciferase (HEK-CMV-Luc2-Hygro). Reagent: single siRNA against human genes, 0.8 pmol siRNA per well. Timing: 72 h. Read-out: 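Reporter luminescence and viable-cell signal on separate replicate plates, given as percent of non-targeting control and median/MAD z-scores, plus per-cell luciferase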. Reading the numbers: total luciferase, z-score and total luciferase, % of control: higher = more reporter protein produced. Call rule: 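An siRNA counts as active if its total luciferase robust z-score exceeds 3; genes with two or more such siRNAs out of three were retested with fresh siRNAs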. Calls: active = raised luciferase; inactive = no rise.
Shown is one part, drawn at random, of about 59,000 reagents. In the full data, about 1,510 (2.6%) were called active. 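Calls use total luciferase alone and ignore viability, so some active siRNAs may act by altering cell number.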 Reagents against one gene are numbered here. Further read-outs or replicates are left out here.

NMRK2 #1
- total luciferase, z-score: -0.0299
- total luciferase, % of control: 81.3
- outcome: inactive

NMRK2 #2
- total luciferase, z-score: -0.597
- total luciferase, % of control: 70
- outcome: inactive

NMRK2 #3
- total luciferase, z-score: 0.094
- total luciferase, % of control: 83.8
- outcome: inactive

ERO1B #1
- total luciferase, z-score: 0.359
- total luciferase, % of control: 89
- outcome: inactive

ERO1B #2
- total luciferase, z-score: -0.769
- total luciferase, % of control: 66.6
- outcome: inactive

ERO1B #3
- total luciferase, z-score: -1.12
- total luciferase, % of control: 59.6
- outcome: inactive

AHCTF1 #1
- total luciferase, z-score: 1.06
- total luciferase, % of control: 103
- outcome: inactive

AHCTF1 #2
- total luciferase, z-score: 0.0965
- total luciferase, % of control: 83.8
- outcome: inactive

AHCTF1 #3
- total luciferase, z-score: 1.76
- total luciferase, % of control: 117
- outcome: inactive

SLIT2 #1
- total luciferase, z-score: -0.904
- total luciferase, % of control: 63.9
- outcome: inactive

SLIT2 #2
- total luciferase, z-score: 0.00152
- total luciferase, % of control: 81.9
- outcome: inactive

SLIT2 #3
- total luciferase, z-score: -1.9
- total luciferase, % of control: 44.2
- outcome: inactive

The list goes on; the last 2 above are carried over.
SLIT2 #2
- total luciferase, z-score: 0.00152
- total luciferase, % of control: 81.9
- outcome: inactive

SLIT2 #3
- total luciferase, z-score: -1.9
- total luciferase, % of control: 44.2
- outcome: inactive

PRDM16 #1
- total luciferase, z-score: 3.45
- total luciferase, % of control: 150
- outcome: active

PRDM16 #2
- total luciferase, z-score: -0.396
- total luciferase, % of control: 74
- outcome: inactive

PRDM16 #3
- total luciferase, z-score: -1.04
- total luciferase, % of control: 61.2
- outcome: inactive

PRDM16 #4
- total luciferase, z-score: -0.904
- total luciferase, % of control: 63.9
- outcome: inactive

PRDM16 #5
- total luciferase, z-score: 1.13
- total luciferase, % of control: 104
- outcome: inactive

PRDM16 #6
- total luciferase, z-score: -1.66
- total luciferase, % of control: 48.8
- outcome: inactive

HOXD9 #1
- total luciferase, z-score: -0.226
- total luciferase, % of control: 77.4
- outcome: inactive

HOXD9 #2
- total luciferase, z-score: 0.176
- total luciferase, % of control: 85.4
- outcome: inactive

HOXD9 #3
- total luciferase, z-score: -1.23
- total luciferase, % of control: 57.4
- outcome: inactive
